{
  "source": "the supplement of paper PMC4604168 (melanoma cell lines)",
  "note": "Some of the results follow. Single values are uncertain, as repeats are few or missing.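 Cells were imaged in 1,536-well plates, and nuclei stained with an antibody against cleaved PARP were counted against all DNA-stained nuclei to give the apoptosis fraction. Screening doses were chosen to leave most cells alive, and resting and induced cleaved-PARP levels differ strongly between cell lines.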",
  "data": [
    {"system": "WM115", "assay": "cleaved PARP positive nuclei fraction relative to DMSO control; melanoma cells; higher = more apoptosis", "conditions": "library dose: low library concentration; 72 h", "units": {"cleaved PARP positive nuclei fraction": "%"}, "values": [
      {"smiles": "Cn1sc(=O)n(Cc2ccccc2)c1=O", "note": "+ Cn1cncc1[C@@](N)(c1ccc(Cl)cc1)c1ccc2c(c1)c(-c1cccc(Cl)c1)cc(=O)n2C [tipifarnib] (first compound 0.4 µM, partner dose 0.01 µM)", "cleaved PARP positive nuclei fraction": 101},
      {"smiles": "CCN(CC)CCNC(=O)c1c(C)[nH]c(/C=C2\\C(=O)Nc3ccc(F)cc32)c1C", "note": "[sunitinib] + CC(C)(C)c1cnc(CSc2cnc(NC(=O)C3CCNCC3)s2)o1 [SNS-032] (first compound 0.4 µM, partner dose 0.01 µM)", "cleaved PARP positive nuclei fraction": 160},
      {"smiles": "CC1(C)CCC(c2ccc(Cl)cc2)=C(CN2CCN(c3ccc(C(=O)NS(=O)(=O)c4ccc(N[C@H](CCN5CCOCC5)CSc5ccccc5)c(S(=O)(=O)C(F)(F)F)c4)cc3)CC2)C1", "note": "+ C=C(c1ccc(C(=O)O)cc1)c1cc2c(cc1C)C(C)(C)CCC2(C)C [Bexarotene] (first compound 0.4 µM, partner dose 2 µM)", "cleaved PARP positive nuclei fraction": 240},
      {"smiles": "Cn1sc(=O)n(Cc2ccccc2)c1=O", "note": "+ CCN(CC)CCCCNc1ncc2cc(-c3cc(OC)cc(OC)c3)c(NC(=O)NC(C)(C)C)nc2n1 [PD173074] (first compound 0.4 µM, partner dose 0.1 µM)", "cleaved PARP positive nuclei fraction": 167},
      {"smiles": "CC1(C)CCC(c2ccc(Cl)cc2)=C(CN2CCN(c3ccc(C(=O)NS(=O)(=O)c4ccc(N[C@H](CCN5CCOCC5)CSc5ccccc5)c(S(=O)(=O)C(F)(F)F)c4)cc3)CC2)C1", "note": "+ Cn1sc(=O)n(Cc2ccccc2)c1=O [TDZD-8] (first compound 0.4 µM, partner dose 0.4 µM)", "cleaved PARP positive nuclei fraction": 441},
      {"smiles": "C[C@]1(O)C[C@@H](c2nc(-c3ccc4ccc(-c5ccccc5)nc4c3)c3c(N)nccn32)C1", "note": "+ Cc1cc(Nc2cc(N3CCN(C)CC3)nc(/C=C/c3ccccc3)n2)n[nH]1 [ENMD2076] (first compound 0.4 µM, partner dose 0.04 µM)", "cleaved PARP positive nuclei fraction": 133},
      {"smiles": "C[C@@H](N)c1ccc(C(=O)Nc2ccnc3[nH]ccc23)cc1", "note": "+ CN(C)S(=O)(=O)c1ccc2c(c1)/C(=C/c1cc3c([nH]1)CCCC3)C(=O)N2 [SU6656] (first compound 0.4 µM, partner dose 0.4 µM)", "cleaved PARP positive nuclei fraction": 132},
      {"smiles": "NC1(c2ccc(-c3nc4ccn5c(=O)[nH]nc5c4cc3-c3ccccc3)cc2)CCC1", "note": "+ CN(NC(=O)CC(=O)NN(C)C(=S)c1ccccc1)C(=S)c1ccccc1 [STA4783] (first compound 0.4 µM, partner dose 0.006 µM)", "cleaved PARP positive nuclei fraction": 263},
      {"smiles": "Cn1sc(=O)n(Cc2ccccc2)c1=O", "note": "+ CC(C)(C)c1cnc(CSc2cnc(NC(=O)C3CCNCC3)s2)o1 [SNS-032] (first compound 0.4 µM, partner dose 0.01 µM)", "cleaved PARP positive nuclei fraction": 163},
      {"smiles": "Cn1cnc2c(F)c(Nc3ccc(Br)cc3Cl)c(C(=O)NOCCO)cc21", "note": "[selumetinib] + COc1cc(N2CCC(N3CCN(C)CC3)CC2)ccc1Nc1ncc(Cl)c(Nc2ccccc2S(=O)(=O)C(C)C)n1 [NVP-TAE684] (first compound 0.015 µM, partner dose 0.08 µM)", "cleaved PARP positive nuclei fraction": 346},
      {"smiles": "Cn1cnc2c(F)c(Nc3ccc(Br)cc3Cl)c(C(=O)NOCCO)cc21", "note": "[selumetinib] + O=S(=O)(c1ccccc1)N(CC(F)(F)F)c1ccc(C(O)(C(F)(F)F)C(F)(F)F)cc1 [T0901317] (first compound 0.015 µM, partner dose 1.4 µM)", "cleaved PARP positive nuclei fraction": 160},
      {"smiles": "C[C@@H](N)c1ccc(C(=O)Nc2ccnc3[nH]ccc23)cc1", "note": "+ c1cc(-c2cnn3cc(-c4ccc(OCCN5CCCCC5)cc4)cnc23)ccn1 [Dorsomorphin] (first compound 0.4 µM, partner dose 0.4 µM)", "cleaved PARP positive nuclei fraction": 51},
      {"smiles": "NC1(c2ccc(-c3nc4ccn5c(=O)[nH]nc5c4cc3-c3ccccc3)cc2)CCC1", "note": "+ Cn1c(=O)n(-c2ccc(C(C)(C)C#N)cc2)c2c3cc(-c4cnc5ccccc5c4)ccc3ncc21 [NVP-BEZ235] (first compound 0.4 µM, partner dose 0.004 µM)", "cleaved PARP positive nuclei fraction": 391},
      {"smiles": "NC(=O)c1ccc(N(C(N)=O)c2c(F)cccc2F)nc1-c1ccc(F)cc1F", "note": "+ CC(C)(C)c1cnc(CSc2cnc(NC(=O)C3CCNCC3)s2)o1 [SNS-032] (first compound 0.4 µM, partner dose 0.01 µM)", "cleaved PARP positive nuclei fraction": 73.2},
      {"smiles": "C[C@]1(O)C[C@@H](c2nc(-c3ccc4ccc(-c5ccccc5)nc4c3)c3c(N)nccn32)C1", "note": "+ CNC(=O)c1cc(Oc2ccc(NC(=O)Nc3ccc(Cl)c(C(F)(F)F)c3)cc2)ccn1 [sorafenib] (first compound 0.4 µM, partner dose 0.4 µM)", "cleaved PARP positive nuclei fraction": 176},
      {"smiles": "Cn1sc(=O)n(Cc2ccccc2)c1=O", "note": "+ CCc1ccc(CCOc2ccc(CC3SC(=O)NC3=O)cc2)nc1 [pioglitazone] (first compound 0.4 µM, partner dose 2 µM)", "cleaved PARP positive nuclei fraction": 53}
    ]}
  ]
}
